# Test results as given in PubChem BioAssay AID1259415 (National Center for Advancing Translational Sciences (NCATS), 2018).
# Values joined by “and” are separate entries in the source; they are usually repeats but may differ in a detail not shown here. Equal values may be shown once. Screen size: about 410,000 compounds; about 18,000 (4.4%) were called active. Inconclusive results, whose numbers are uncertain, are shown with a selection of clear calls. Rule as the data show it: active = activity change below about -60%; inconclusive = no clear call, values can overlap the other calls; inactive = above about -39%.
# Test: qHTS Assay for inhibitors of the human cytomegalovirus (HCMV)
# Settings: HFF cells, HCMV-luciferase reporter, 72 h; at 57.5 µM; hits give low values
# In short: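 Two-dose cell screen: HFF monolayers treated with compounds and infected with luciferase-expressing HCMV at 1 PFU/cell, 72 h at 37C, then lysed for luciferase measurement.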
# % is scaled to controls: 0 for no effect and ±100 for the full control effect.
row,Compound,"activity change, negative = inhibition"
1,C[C@H](c1ccccc1)N1C[C@H](COCc2ccccc2)Oc2cc(N3CC[C@H](N(C)C)C3)ccc2S1(=O)=O,inconclusive: -51%
2,CC1(c2ccccc2)CC(C)(C)N2C(=O)/C(=C3\SC(=S)NC3=O)c3cccc1c32 (centres undefined),inconclusive: -42.7%
3,Cc1cc(C(F)(F)F)nc(SCC(=O)NC2CC3CCC2C3)n1 (centres undefined),active: -68.4%
4,CN(CC(=O)Nc1ccc(F)c(F)c1F)C(=O)C1COc2ccccc2O1 (centres undefined),inconclusive: 0%
5,CC1(C)Cc2c(sc3nc(C4CCCCC4)n(N)c(=O)c23)CO1,inconclusive: -45.5%
6,COc1ccc(CCNC(=O)C2CCC(=O)N(C3CCCCCC3)C2)cc1 (centres undefined),inactive: -15.3%
7,CC(C)Oc1ccc(CNC(=O)c2cccc(NC(=O)N3CCSc4ncccc43)c2)cc1,inconclusive: 0%
8,N#Cc1sc2nc3c(cc2c1N)CCCC3,active: -64.2%
9,NC(=O)C1CC(=O)N(c2ccc(OCc3c(F)cccc3Cl)cc2)C1 (centres undefined),inconclusive: -53.2%
10,CCOc1ccccc1C(=O)Nc1cccc(-c2ccc3nncn3n2)c1,inconclusive: -44.6%
11,CCc1ccc2oc(-c3cc(NC(=O)c4cccnc4)cc(C)c3O)nc2c1,inactive: 35.2%
12,O=C(C1CCC1)N1CC(=O)N2[C@H](CO)[C@@H](c3ccc(Br)cc3)[C@@H]2C1,inactive: -5.22%
13,O=[N+]([O-])c1cccc(-c2ccc(SCc3cccnc3)nn2)c1,inactive: 12.3%
14,CCOC(=O)[C@]12CCC=C1N(CCC1=CCCCC1)C(=O)[C@H](CC(=O)NCc1ccccc1)C2,inactive: -18.8%
15,Cc1ccc2nc(NC(=O)Cn3nc(C)c([N+](=O)[O-])c3C)sc2c1,inconclusive: -41.6%
16,CCCN(C)C1CN(Cc2cn(Cc3ccc(Cl)cc3)nn2)S(=O)(=O)C1 (centres undefined),inactive: 17%
17,Cc1ccc(NC(=S)NC(=O)c2ccc(F)cc2)cc1S(=O)(=O)Nc1ccccc1Cl,inconclusive: -45.1%
18,OCCN1CCN(C2CCC(c3ccc(F)cc3)c3ccc(F)cc32)CC1 (centres undefined),inconclusive: -46.3%
19,C=CCOc1ccc(/C=N/O)cc1Cl,inactive: 47.1%
20,CCc1ccc(S(=O)(=O)c2nnn3c2nc(Nc2ccc(F)cc2)c2cc(Cl)ccc23)cc1,inactive: -5.88%
21,O=C1CSC(c2ccccn2)N1c1ccc(F)cc1F (centres undefined),inconclusive: -54.7%
22,CN(CCOc1ccc(C=C2C(=O)NC(=O)NC2=O)cc1)c1ccccn1,inactive: -32.4%
23,O=C(C1=C(O)C(=O)N(c2ncccn2)C1c1ccc(Cl)cc1)c1ccco1 (centres undefined),inactive: 45.8%
24,COc1ccc(N/C(C)=C2/C(=O)C(=O)N(CCO)C2c2ccc([N+](=O)[O-])cc2)cc1 (centres undefined),active: -98.9%
25,O=C(/C=C/c1ccco1)N/C(=C\c1ccccc1)C(=O)NCCc1nc2ccccc2[nH]1,inactive: -24.6%
26,Cc1cc(C)c(-n2c(SCc3nc4ccccc4s3)n[nH]c2=O)c(C)c1,inactive: 50.8%
27,CSCC[C@H](NC(=O)[C@@H]1CSC2c3ccccc3C(=O)N21)C(=O)NC1CCCC1 (some centres undefined),inactive: 24.7%

row,Compound,"activity change, negative = inhibition"
1,CCN1C(=O)/C(=C/c2nc3ccccc3c(=O)n2-c2ccc(C)cc2)c2ccccc21,active: -78.4%
2,c1ccc(-c2cn(-c3ccccc3)c3[n+]2CCS3)cc1,inconclusive: -43.8%
3,CCc1ccc(-c2nn(CC(=O)NCc3ccccc3)c3c2cnc2ccc(F)cc23)cc1,inactive: 15.7%
4,CCC1CCCCN1CCCNC(=O)c1cc2c(=O)oc3ccc(C)cc3c2s1 (centres undefined),inactive: 0%
5,CCOc1ccc(C(=O)Nc2nc3ccccc3[nH]2)cc1OCC,active: -63%
6,COc1cc(OC)c(/C=C2\SC(=O)N(CC(=O)Nc3ccccc3F)C2=O)c(OC)c1,inconclusive: -49%
7,COc1ccc(CCN2C(=O)NC(NS(=O)(=O)c3ccc(NC(C)=O)cc3)(C(F)(F)F)C2=O)cc1OC (centres undefined),inactive: -5.12% and inactive: 15.5%
8,CCCC(C)C(=O)NCc1ccc2c(c1)OCO2 (centres undefined),inconclusive: -51.1%
9,CCc1ccc(N2C(=O)c3sc4nnc(-c5ccccc5)c(=O)n4c3C2=O)cc1,active: -77.2%
10,COC(=O)c1cc(OC)c(OC)cc1NC(=S)N1CCN(c2ccccn2)CC1,inconclusive: -43.8%
11,Cc1ccc(S(=O)(=O)NCCC(=O)N2CCOCC2)cc1C,inactive: -15.6%
12,O=C(C1CCCN1C(=O)c1cccs1)N1CCN(S(=O)(=O)c2ccc(F)cc2)CC1 (centres undefined),inconclusive: -54.3%
13,O=C(c1cc(-c2ccncc2)nc2ccccc12)N1CCN(c2ccc(N3CCOCC3)nn2)CC1,inactive: 99.4%
14,CC(=O)N1c2ccc(S(=O)(=O)N3CCCC(C(=O)Nc4ccc(F)cc4)C3)cc2CC1C (centres undefined),active: -68.2%
15,O=C1/C(=C/c2ccc(F)cc2)SC(=S)N1CCCC(=O)N1CCCCC1CCO (centres undefined),active: -100%
16,COc1cc(Cl)ccc1OC1(C)CCN(Cc2cccc(OC)c2OC)C1 (centres undefined),inconclusive: -40.4%
17,COC(=O)c1ccc(C)c(NC(=O)CSc2nnc3ccccn23)c1,inactive: 0%
18,Cc1ccc(S(=O)(=O)N2CCC([C@H](C#N)c3ccccc3)CC2)cc1,inactive: -12.4%
19,Cn1cnnc1SCC(=O)Nc1ccc(C#N)cc1,inactive: -14.7%
20,O=C(NC(=S)Nc1nc(-c2ccc(Br)cc2)cs1)c1ccco1,inconclusive: -41%
21,CS(=O)(=O)c1ccc(Cl)c(NC(=O)CSc2nnc3n2CCCCC3)c1,inconclusive: -59.1%
22,CC(=O)Nc1cccc(NC(=O)C(=O)NCC(c2ccco2)N2CCc3ccccc3C2)c1 (centres undefined),inconclusive: -42.2%
23,Cc1ccc(S(=O)(=O)N2CCOCC2)cc1C(=O)Nc1nc(-c2ccccn2)cs1,active: -87.1%
24,Cc1cccc(C(=O)NC(=S)NNC(=O)c2ccccc2Cl)c1,active: -66.9%
25,COc1cc(C(=O)Nc2ccc(S(=O)(=O)NC(C)C)cc2)cc(OC)c1OC,inactive: 61.4%
26,CC1CCCN(c2c([N+](=O)[O-])cc(C(=O)O)cc2[N+](=O)[O-])C1 (centres undefined),active: -101%
27,Cc1cc(C)c2nc(N(Cc3cccnc3)C(=O)c3cccs3)sc2c1,inactive: 0%

# Laid out differently: three of the compounds above
row	Compound	activity change, negative = inhibition
25	COc1cc(C(=O)Nc2ccc(S(=O)(=O)NC(C)C)cc2)cc(OC)c1OC	inactive: 61.4%
26	CC1CCCN(c2c([N+](=O)[O-])cc(C(=O)O)cc2[N+](=O)[O-])C1 (centres undefined)	active: -101%
27	Cc1cc(C)c2nc(N(Cc3cccnc3)C(=O)c3cccs3)sc2c1	inactive: 0%
